{"sequences": {"note": "The chains behind the UniProt entries cited, without tags or fusion partners. Where a name states a change or a piece, a line headed by the entry shows the natural chain unless it says otherwise.", "UniProt O14965": "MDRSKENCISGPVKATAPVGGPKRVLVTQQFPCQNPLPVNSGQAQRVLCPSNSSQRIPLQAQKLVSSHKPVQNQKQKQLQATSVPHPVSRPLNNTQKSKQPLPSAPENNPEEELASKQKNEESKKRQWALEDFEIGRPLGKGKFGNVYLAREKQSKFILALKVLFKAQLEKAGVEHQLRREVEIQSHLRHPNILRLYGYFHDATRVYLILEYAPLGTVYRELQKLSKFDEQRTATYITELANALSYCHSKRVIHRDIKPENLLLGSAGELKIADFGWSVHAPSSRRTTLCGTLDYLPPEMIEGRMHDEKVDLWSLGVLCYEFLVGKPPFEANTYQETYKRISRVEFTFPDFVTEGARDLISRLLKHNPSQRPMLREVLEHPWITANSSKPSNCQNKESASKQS", "UniProt P03928": "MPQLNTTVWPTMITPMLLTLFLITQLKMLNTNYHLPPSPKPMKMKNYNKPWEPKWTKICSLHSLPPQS", "UniProt Q8WUR7": "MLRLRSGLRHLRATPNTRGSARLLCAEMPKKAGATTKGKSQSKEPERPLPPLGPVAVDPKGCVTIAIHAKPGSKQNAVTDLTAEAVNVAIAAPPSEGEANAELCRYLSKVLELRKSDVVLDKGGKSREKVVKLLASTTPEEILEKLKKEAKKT", "UniProt Q9BRD0": "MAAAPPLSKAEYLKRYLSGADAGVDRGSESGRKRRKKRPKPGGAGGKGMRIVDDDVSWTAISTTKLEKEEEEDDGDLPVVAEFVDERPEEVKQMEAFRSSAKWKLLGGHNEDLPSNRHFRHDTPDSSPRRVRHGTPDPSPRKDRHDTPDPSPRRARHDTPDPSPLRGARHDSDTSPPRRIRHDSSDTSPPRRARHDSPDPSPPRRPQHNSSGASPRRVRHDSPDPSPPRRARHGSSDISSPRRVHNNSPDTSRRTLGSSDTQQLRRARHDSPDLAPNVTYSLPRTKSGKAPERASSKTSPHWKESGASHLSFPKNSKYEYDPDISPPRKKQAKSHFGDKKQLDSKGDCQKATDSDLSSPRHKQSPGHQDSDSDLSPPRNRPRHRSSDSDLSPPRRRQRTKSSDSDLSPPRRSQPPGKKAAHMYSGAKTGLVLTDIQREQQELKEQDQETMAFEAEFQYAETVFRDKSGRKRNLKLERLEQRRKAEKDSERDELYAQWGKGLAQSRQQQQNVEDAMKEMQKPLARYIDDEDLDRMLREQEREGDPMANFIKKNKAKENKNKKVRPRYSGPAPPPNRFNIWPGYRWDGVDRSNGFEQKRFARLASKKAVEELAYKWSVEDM", "UniProt O60566, whole entry": "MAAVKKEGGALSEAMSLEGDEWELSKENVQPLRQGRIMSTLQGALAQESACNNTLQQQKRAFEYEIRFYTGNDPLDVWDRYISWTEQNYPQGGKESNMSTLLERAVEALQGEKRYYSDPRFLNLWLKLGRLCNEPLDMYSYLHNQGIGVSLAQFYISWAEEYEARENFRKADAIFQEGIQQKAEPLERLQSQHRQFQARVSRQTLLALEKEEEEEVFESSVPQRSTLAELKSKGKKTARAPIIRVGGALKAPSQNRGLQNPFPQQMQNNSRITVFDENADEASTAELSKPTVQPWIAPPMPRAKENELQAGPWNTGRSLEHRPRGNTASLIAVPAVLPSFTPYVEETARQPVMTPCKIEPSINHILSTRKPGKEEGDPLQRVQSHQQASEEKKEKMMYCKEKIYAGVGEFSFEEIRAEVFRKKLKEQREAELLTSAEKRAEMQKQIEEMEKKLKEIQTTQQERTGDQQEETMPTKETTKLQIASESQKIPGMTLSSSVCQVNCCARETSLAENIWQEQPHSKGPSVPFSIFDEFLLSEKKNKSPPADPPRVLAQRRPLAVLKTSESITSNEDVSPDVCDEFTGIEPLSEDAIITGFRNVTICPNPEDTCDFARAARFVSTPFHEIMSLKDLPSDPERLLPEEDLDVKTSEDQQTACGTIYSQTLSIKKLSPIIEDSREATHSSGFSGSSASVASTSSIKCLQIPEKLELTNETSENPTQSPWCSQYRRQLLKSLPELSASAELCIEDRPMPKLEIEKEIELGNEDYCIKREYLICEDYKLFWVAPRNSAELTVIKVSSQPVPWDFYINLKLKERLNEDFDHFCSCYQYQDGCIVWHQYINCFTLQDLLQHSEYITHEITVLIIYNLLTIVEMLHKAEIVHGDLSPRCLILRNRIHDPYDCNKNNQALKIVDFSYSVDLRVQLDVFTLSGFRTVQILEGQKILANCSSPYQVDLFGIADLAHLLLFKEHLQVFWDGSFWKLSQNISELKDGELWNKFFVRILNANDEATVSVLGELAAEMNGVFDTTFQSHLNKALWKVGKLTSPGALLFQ", "UniProt Q7Z3E2": "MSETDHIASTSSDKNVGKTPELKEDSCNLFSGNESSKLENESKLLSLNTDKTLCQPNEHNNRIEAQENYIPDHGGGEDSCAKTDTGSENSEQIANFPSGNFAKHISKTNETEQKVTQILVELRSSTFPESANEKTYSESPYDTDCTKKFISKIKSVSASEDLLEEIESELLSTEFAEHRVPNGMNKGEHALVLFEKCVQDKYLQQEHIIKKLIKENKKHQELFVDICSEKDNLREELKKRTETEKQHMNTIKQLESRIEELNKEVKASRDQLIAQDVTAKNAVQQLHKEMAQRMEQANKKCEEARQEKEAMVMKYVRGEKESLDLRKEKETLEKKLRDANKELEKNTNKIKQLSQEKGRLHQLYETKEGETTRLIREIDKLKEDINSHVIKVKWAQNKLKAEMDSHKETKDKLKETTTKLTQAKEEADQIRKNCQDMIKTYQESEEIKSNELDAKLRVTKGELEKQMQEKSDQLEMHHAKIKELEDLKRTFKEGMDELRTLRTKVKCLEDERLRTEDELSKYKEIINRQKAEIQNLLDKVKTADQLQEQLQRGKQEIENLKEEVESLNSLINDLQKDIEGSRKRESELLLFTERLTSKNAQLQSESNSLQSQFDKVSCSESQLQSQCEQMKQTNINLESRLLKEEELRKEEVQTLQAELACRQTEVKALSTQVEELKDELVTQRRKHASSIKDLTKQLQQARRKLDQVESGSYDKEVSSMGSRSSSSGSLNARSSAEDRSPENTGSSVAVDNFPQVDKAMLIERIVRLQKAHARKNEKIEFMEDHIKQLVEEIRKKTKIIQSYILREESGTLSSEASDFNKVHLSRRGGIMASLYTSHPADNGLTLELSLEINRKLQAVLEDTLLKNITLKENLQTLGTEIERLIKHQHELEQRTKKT", "UniProt Q9BXK5, whole entry": "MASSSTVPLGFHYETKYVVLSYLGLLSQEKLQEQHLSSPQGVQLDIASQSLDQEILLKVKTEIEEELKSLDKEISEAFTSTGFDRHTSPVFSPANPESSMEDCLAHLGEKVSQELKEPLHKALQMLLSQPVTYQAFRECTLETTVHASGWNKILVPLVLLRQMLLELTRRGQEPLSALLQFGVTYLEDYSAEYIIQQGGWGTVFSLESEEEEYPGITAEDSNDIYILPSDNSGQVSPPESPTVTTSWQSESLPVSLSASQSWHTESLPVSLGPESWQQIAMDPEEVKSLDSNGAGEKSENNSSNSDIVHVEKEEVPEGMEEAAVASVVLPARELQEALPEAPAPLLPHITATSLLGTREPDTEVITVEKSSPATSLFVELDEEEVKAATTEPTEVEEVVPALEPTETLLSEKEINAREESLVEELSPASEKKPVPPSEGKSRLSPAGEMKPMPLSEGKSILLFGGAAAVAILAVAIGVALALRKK", "UniProt P35613": "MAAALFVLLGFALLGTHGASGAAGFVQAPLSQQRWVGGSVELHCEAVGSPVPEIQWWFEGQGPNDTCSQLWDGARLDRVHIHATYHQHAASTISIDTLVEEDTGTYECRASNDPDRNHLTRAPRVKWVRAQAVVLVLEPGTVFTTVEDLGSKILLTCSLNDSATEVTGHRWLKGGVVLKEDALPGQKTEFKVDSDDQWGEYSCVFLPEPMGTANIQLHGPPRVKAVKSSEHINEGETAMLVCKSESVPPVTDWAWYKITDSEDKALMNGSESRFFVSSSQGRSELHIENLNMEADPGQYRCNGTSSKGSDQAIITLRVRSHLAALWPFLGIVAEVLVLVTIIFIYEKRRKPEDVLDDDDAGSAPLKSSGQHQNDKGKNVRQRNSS", "UniProt Q8N205": "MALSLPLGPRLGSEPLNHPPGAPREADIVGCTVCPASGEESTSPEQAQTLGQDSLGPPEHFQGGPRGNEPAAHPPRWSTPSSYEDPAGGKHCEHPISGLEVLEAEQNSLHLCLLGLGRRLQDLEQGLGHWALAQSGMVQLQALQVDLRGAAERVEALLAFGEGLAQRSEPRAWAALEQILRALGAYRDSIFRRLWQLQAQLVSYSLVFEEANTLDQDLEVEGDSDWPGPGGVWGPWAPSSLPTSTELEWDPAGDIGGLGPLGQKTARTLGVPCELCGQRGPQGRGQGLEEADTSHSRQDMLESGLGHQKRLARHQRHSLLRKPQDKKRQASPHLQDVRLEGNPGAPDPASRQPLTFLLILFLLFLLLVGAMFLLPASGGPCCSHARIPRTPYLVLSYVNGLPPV", "UniProt O15155": "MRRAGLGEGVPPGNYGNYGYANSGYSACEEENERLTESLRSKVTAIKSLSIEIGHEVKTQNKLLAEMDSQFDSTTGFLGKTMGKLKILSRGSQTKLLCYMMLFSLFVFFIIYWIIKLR", "UniProt Q5T5X7": "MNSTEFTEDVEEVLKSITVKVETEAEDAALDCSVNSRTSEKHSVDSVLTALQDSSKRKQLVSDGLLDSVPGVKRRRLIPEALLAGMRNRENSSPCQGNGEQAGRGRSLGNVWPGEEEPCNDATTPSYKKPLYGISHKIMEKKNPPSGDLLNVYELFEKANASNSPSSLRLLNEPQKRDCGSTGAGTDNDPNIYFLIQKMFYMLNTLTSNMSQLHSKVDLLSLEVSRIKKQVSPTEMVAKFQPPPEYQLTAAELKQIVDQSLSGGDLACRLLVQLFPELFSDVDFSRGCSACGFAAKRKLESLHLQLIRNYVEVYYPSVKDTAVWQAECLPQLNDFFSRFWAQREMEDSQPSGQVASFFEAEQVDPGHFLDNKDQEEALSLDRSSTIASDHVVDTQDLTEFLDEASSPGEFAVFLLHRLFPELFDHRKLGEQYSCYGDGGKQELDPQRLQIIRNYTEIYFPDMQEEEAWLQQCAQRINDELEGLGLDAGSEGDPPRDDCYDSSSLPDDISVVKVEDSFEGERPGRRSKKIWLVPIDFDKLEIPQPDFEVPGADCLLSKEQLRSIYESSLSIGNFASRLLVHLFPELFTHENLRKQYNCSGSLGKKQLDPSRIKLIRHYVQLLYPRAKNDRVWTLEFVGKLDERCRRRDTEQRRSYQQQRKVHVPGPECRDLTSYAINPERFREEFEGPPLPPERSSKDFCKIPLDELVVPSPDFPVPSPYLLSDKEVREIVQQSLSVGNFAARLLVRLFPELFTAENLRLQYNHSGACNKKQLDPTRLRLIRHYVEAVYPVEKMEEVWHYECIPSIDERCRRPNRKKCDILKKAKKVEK", "UniProt Q9H0W9": "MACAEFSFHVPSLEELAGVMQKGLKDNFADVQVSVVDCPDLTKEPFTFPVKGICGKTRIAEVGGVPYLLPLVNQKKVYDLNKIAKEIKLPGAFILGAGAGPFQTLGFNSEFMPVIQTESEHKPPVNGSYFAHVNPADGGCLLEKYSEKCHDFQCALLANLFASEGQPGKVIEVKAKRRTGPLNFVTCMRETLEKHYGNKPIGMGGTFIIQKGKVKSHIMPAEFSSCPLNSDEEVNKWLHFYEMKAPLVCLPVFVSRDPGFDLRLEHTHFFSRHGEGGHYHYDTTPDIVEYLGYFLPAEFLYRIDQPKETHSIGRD", "UniProt Q9NRP2": "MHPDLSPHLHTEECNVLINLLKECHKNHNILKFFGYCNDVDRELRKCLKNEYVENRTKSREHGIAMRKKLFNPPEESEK", "UniProt Q8WXE1": "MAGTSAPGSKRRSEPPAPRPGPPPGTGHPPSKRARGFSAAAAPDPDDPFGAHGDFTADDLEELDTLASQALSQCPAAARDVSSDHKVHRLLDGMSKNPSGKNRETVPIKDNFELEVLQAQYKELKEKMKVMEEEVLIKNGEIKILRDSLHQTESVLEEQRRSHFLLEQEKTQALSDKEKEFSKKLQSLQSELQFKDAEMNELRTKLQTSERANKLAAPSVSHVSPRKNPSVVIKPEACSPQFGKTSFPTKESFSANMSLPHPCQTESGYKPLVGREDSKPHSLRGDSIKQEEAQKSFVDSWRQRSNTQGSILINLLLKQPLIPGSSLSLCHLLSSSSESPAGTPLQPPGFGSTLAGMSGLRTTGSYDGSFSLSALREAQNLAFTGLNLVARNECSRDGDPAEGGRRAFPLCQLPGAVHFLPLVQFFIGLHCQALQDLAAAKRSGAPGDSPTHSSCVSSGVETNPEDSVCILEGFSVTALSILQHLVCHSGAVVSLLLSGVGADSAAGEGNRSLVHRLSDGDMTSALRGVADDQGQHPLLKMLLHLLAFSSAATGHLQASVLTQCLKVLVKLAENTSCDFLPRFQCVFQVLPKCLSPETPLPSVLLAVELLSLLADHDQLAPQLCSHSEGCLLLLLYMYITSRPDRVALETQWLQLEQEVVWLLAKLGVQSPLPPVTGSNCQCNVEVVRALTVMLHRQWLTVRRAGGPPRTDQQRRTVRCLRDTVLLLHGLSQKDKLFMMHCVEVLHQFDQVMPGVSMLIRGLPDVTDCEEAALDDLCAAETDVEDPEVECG"}, "source": "the supplement of paper PMC7666118", "note": "This is one part of the list.", "data": [{"compound": "COc1ccc(Cn2ccc3cc(C)c(C(=O)NO)cc32)cc1", "assay": "dose-dependent thermal stabilisation call (2D-TPP, DLPTP, 10% FDR) (binary (1 = stabilised)); higher = stabilised by the compound", "conditions": "system: HL-60 intact cells; concentration range 0.04-10 µM", "procedure": "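2D thermal proteome profiling in intact HL-60 cells treated with BRD-3811 (0, 0.04, 0.29, 2, 10 uM) for 90 min at 37 C, then heated 3 min at one of 12 temperatures (42-63.9 C). Soluble protein was quantified by TMT10 MS. The value is the DLPTP call of the paper: dose-dependent thermal stabilisation over all temperatures at 10% FDR (F-test of a dose-response against a flat model); one experiment, one call per tested protein.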", "values": [{"target": "ATP2B4 (UniProt P23634)", "dose-dependent thermal stabilisation call": "inactive: 0"}, {"target": "BLVRA (UniProt P53004)", "dose-dependent thermal stabilisation call": "inactive: 0"}, {"target": "ATP6V1B2 (UniProt P21281)", "dose-dependent thermal stabilisation call": "inactive: 0"}, {"target": "AURKA (UniProt O14965)", "dose-dependent thermal stabilisation call": "inactive: 0"}, {"target": "ATP8 (UniProt P03928)", "dose-dependent thermal stabilisation call": "inactive: 0"}, {"target": "C15ORF40 (UniProt Q8WUR7)", "dose-dependent thermal stabilisation call": "inactive: 0"}, {"target": "BUD13 (UniProt Q9BRD0)", "dose-dependent thermal stabilisation call": "inactive: 0"}, {"target": "C15ORF23 (UniProt Q9Y448)", "dose-dependent thermal stabilisation call": "inactive: 0"}, {"target": "B2M (UniProt P61769)", "dose-dependent thermal stabilisation call": "inactive: 0"}, {"target": "C15ORF15 (UniProt Q9UHA3)", "dose-dependent thermal stabilisation call": "inactive: 0"}, {"target": "BCKDHA (UniProt P12694)", "dose-dependent thermal stabilisation call": "inactive: 0"}, {"target": "BUB1B (UniProt O60566)", "dose-dependent thermal stabilisation call": "inactive: 0"}, {"target": "C17ORF75 (UniProt Q9HAS0)", "dose-dependent thermal stabilisation call": "inactive: 0"}, {"target": "C10ORF118 (UniProt Q7Z3E2)", "dose-dependent thermal stabilisation call": "inactive: 0"}, {"target": "BTAF1 (UniProt O14981)", "dose-dependent thermal stabilisation call": "inactive: 0"}, {"target": "C10ORF84 (UniProt Q9H8W3)", "dose-dependent thermal stabilisation call": "inactive: 0"}, {"target": "C11ORF58 (UniProt O00193)", "dose-dependent thermal stabilisation call": "inactive: 0"}, {"target": "BCL2L13 (UniProt Q9BXK5)", "dose-dependent thermal stabilisation call": "inactive: 0"}, {"target": "BRE (UniProt Q9NXR7)", "dose-dependent thermal stabilisation call": "inactive: 0"}, {"target": "BSG (UniProt P35613)", "dose-dependent thermal stabilisation call": "inactive: 0"}, {"target": "C17ORF70 (UniProt Q0VG06)", "dose-dependent thermal stabilisation call": "inactive: 0"}, {"target": "C19ORF46 (UniProt Q8N205)", "dose-dependent thermal stabilisation call": "inactive: 0"}, {"target": "BET1 (UniProt O15155)", "dose-dependent thermal stabilisation call": "inactive: 0"}, {"target": "BEND3 (UniProt Q5T5X7)", "dose-dependent thermal stabilisation call": "inactive: 0"}, {"target": "ATP1A1 (UniProt P05023)", "dose-dependent thermal stabilisation call": "inactive: 0"}, {"target": "UniProt B3KTT6_HUMAN", "dose-dependent thermal stabilisation call": "inactive: 0"}, {"target": "C19ORF53 (UniProt Q9UNZ5)", "dose-dependent thermal stabilisation call": "inactive: 0"}, {"target": "C11ORF54 (UniProt Q9H0W9)", "dose-dependent thermal stabilisation call": "inactive: 0"}, {"target": "C16ORF61 (UniProt Q9NRP2)", "dose-dependent thermal stabilisation call": "inactive: 0"}, {"target": "BUD31 (UniProt P41223)", "dose-dependent thermal stabilisation call": "inactive: 0"}, {"target": "BPTF (UniProt Q12830)", "dose-dependent thermal stabilisation call": "inactive: 0"}, {"target": "ATP6V1A (UniProt P38606)", "dose-dependent thermal stabilisation call": "inactive: 0"}, {"target": "C11ORF73 (UniProt Q53FT3)", "dose-dependent thermal stabilisation call": "inactive: 0"}, {"target": "BTF3L4 (UniProt Q96K17)", "dose-dependent thermal stabilisation call": "inactive: 0"}, {"target": "BBC3", "dose-dependent thermal stabilisation call": "inactive: 0"}, {"target": "ATRIP (UniProt Q8WXE1)", "dose-dependent thermal stabilisation call": "inactive: 0"}, {"target": "ATP5L (UniProt O75964)", "dose-dependent thermal stabilisation call": "inactive: 0"}, {"target": "BCAP29 (UniProt Q9UHQ4)", "dose-dependent thermal stabilisation call": "inactive: 0"}, {"target": "C16ORF13 (UniProt Q96S19)", "dose-dependent thermal stabilisation call": "inactive: 0"}, {"target": "UniProt B4DJG9_HUMAN", "dose-dependent thermal stabilisation call": "inactive: 0"}]}]}
